Measured values taken from PubChem BioAssay AID819 (Columbia University Molecular Screening Center, 2007).
Out of some 94,000 compounds screened, about 280 (0.3%) were called active. Inconclusive means that the source gave no clear call. Such entries were picked first, then a sample of the others.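 How the source made its calls: active means activation above 40%, about the mean plus 3 SD, also judged a hit on visual image review; inconclusive means activation above 40% but not a hit on visual review; inactive means activation not above 40% and no visual hit.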

Experiment: enhancers of NFkB p65 translocation in HUVEC – imaging, IL-1B stimulus, high-content imaging, primary screen (AID 819);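 further: percent activation is computed from the nuclear over cytoplasmic p65 intensity ratio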
Conditions: HUVEC IL-1B NFkB p65 nuclear translocation imaging; at 2 µM; hits give high values

Compound | activation
CCc1nn(CC(=O)NCCCN2CCc3ccccc3C2)c(=O)c2cc3sccc3n12 | inconclusive: 45.7%
COc1ccccc1NC(=S)NCCc1ccccc1 | inconclusive: 45.7%
O=C(CSc1nnc(-c2cccs2)n1-c1ccccc1)Nc1ccccc1 | inconclusive: 51.5%
COc1ccc(N2C(C)=CS/C2=C(/C#N)c2nnc(N3CCOCC3)n2-c2ccccc2)cc1 | active: 46.3%
CCCCn1nnc(NC(=O)c2ccco2)n1 | inactive: 13.6%
Cc1ccnc(NS(=O)(=O)c2ccc(CC(C)C)cc2)c1 | inconclusive: 41.7%
Cc1cc(N2CCOCC2)cc(C)[n+]1[O-] | active: 40.1%
CC(C)CC(=O)Nc1nc(=S)ss1 | inactive: 10.7%
Cn1c(SCC(=O)c2ccccc2)nnc1C1CC1 | inconclusive: 42.1%
CCOC(=O)C1=NNC(C(=O)c2ccc(OC)cc2)C1c1ccccc1 (configuration not stated) | inactive: -5.55%
Cc1cc(C(=O)NNC(=S)NCc2ccco2)n(C)n1 | inconclusive: 46.4%
O=C(Oc1csc(=S)n1C(=O)c1ccccc1)c1ccccc1 | inactive: -22.5%
Cc1[nH]c2ccccc2c1Cc1n[nH]c(=S)o1 | active: 46.2%
O=C(Cn1nnc(-c2ccncc2)n1)NCCc1ccccc1 | inactive: 0.29%
O=C(O)Cc1coc(-c2ccc(F)cc2)n1 | inactive: 11.2%
Cc1ccc(C(=O)Cn2nnc3ccccc32)cc1 | inactive: 2.62%
NC(=O)c1oc2ccccc2c1NC(=O)c1nc2ccccc2s1 | inactive: -6.64%
COc1ccc(CN2CCCCC2c2cccnc2)c(OC)c1C (configuration not stated) | inconclusive: 54.6%
CCN(CC)CC(=O)c1c[nH]c2ccccc12 | inconclusive: 54%
CC1=C(C(=O)OC2CCCCCCC2)C(c2ccc(O)cc2)NC(=O)N1 (configuration not stated) | inconclusive: 53.7%
CCCCCCCCS(=O)c1sc2nc3c(cc2c1N)CCCC3 (configuration not stated) | inactive: -2.8%
N#Cc1ccc(Oc2cc(C(F)(F)F)nc(-c3ccccn3)n2)cc1 | active: 49.2%
CCOc1ccc(Oc2ccc(-c3nnc(-c4ccccc4)o3)cc2[N+](=O)[O-])cc1 | inconclusive: 59.7%

Compound | activation
Cc1ccccc1N1C(=O)N(c2cccc(C(F)(F)F)c2)C2CS(=O)(=O)CC21 (configuration not stated) | active: 73%
Cc1c(NS(=O)(=O)c2cccc(C(=O)NCc3ccncc3)c2)c(=O)n(-c2ccccc2)n1C | active: 42.1%
COc1ccc(C(CC(=O)c2ccccc2)S(=O)(=O)c2ccc(C)cc2)cc1 (configuration not stated) | active: 69.2%
COc1ccc(CN2C(=O)c3ccccc3C2C(=O)NCC2CCCO2)c(OC)c1 (configuration not stated) | inconclusive: 46.4%
CC(C)(C)c1ccc(C(=O)NNC(=O)Cc2ccccc2)cc1 | active: 41.9%
CCC(C)NC(=O)CSc1nnc(-c2cc(-c3ccc(C)cc3)nc3ccccc23)n1N (configuration not stated) | active: 72.9%
CCOC(=O)C1CCN(c2ncnc3c2cnn3-c2ccc(OC)cc2)CC1 | inconclusive: 58.3%
Cc1ccccc1NC(NC(=O)c1cccs1)C(Cl)(Cl)Cl (configuration not stated) | inconclusive: 50.3%
COc1ccc(S(=O)(=O)NNC(=O)c2csc(-n3nc(C)cc3C(F)(F)F)n2)cc1OC | active: 52.4%
O=C(CN1CCCC1=O)NC1(C(F)(F)F)NC(=O)N(Cc2ccccc2)C1=O (configuration not stated) | inconclusive: 53.6%
COC(=O)[C@@H](NC(=O)NCc1ccccc1Cl)C(C)C | inactive: 7.04%
O=C(OCC#CCSc1nc2ccccc2s1)c1ccco1 | inactive: 9.66%
COc1cccc(/C=N/n2c(-c3cccs3)n[nH]c2=S)c1 | inactive: 10.9%
Cc1ccc(S(=O)(=O)Nc2nncs2)cc1 | active: 55%
CCCOc1ccc(-c2nnn(CC(=O)c3ccc4c(c3)OCCO4)n2)cc1 | inactive: 10.4%
CC(C)C(NS(=O)(=O)c1cccs1)C(=O)N1CCc2ccccc2C1 (configuration not stated) | inconclusive: 54.4%
Cc1ccc(OCCNC(=O)/C=C/c2ccc([N+](=O)[O-])cc2)cc1C | inconclusive: 67%
Cc1ccc(NC(=O)c2cc(N3C(=O)C4CC=CCC4C3=O)ccc2N2CCOCC2)cc1Cl (configuration not stated) | inconclusive: 56.6%
CC(=O)c1cccc(NC(=O)C2CCCN(S(C)(=O)=O)C2)c1 (configuration not stated) | inconclusive: 48.4%
C=CCc1ccc(OCC(O)COc2ccc(CC=C)cc2OC)c(OC)c1 | inactive: 16.4%
COc1ccc(NC(=O)CN2CCN(c3ccc(Cl)cc3)CC2)c(OC)c1 | inconclusive: 90.6%
CCCSc1nc(C)c2cc(C)cc(C)c2n1 | inconclusive: 45.3%
Cn1c(COc2ccc(Cl)cc2)nnc1SCc1ncc(-c2ccccc2)o1 | inactive: -15.4%

Compound | activation
O=C(Nc1ccccc1Cl)C1CCN(Cc2cnn(-c3ccccc3)c2-n2cccc2)CC1 | inactive: 12.4%
COc1ccc(NC(=O)CSc2nnc(Cc3ccccc3)o2)c(OC)c1 | inconclusive: 52.1%
Cc1cc(C)nc(/N=C2\NC(=O)CC(C(=O)O)N2c2ccc(Cl)cc2)n1 (configuration not stated) | inconclusive: 63.6%
CC(C)(C)C(=O)Nc1nnc(Cc2ccccc2)s1 | active: 41.7%
Cc1noc(NS(=O)(=O)c2ccc(NC(=O)CSc3nc4c(cc3C#N)CCC4)cc2)c1C | active: 67.6%
CCOc1cc(C(=S)N2CCCCC2)ccc1OS(=O)(=O)c1ccc(Br)cc1 | inactive: 9.48%
O=C(CSc1nnc(-c2ccccc2Br)o1)Nc1cccc2ccccc12 | inconclusive: 51.2%
CCCC(C(=O)NCc1ccco1)N(C(=O)CNS(=O)(=O)c1ccccc1)c1ccccc1OC (configuration not stated) | inactive: 37.5%
COc1ccc(C2SCC(C(=O)NCc3ccc(F)cc3)N2C(C)=O)cc1 (configuration not stated) | inactive: 2.96%
COc1ccc(C(=O)C(CN2CCOCC2)c2ccccc2)cc1 (configuration not stated) | inactive: 8.92%
COc1ccc(N(CC(=O)NCc2ccccc2)S(=O)(=O)c2c(C)noc2C)cc1 | inconclusive: 48.9%
CC(C)CC(=O)NS(=O)(=O)c1ccc(N)cc1 | inconclusive: 41.9%
COc1ccccc1Cn1c(=O)c2ccccc2n2c(Sc3ncnc4sccc34)nnc12 | inconclusive: 42.6%
CC1(C)CC(=O)c2c(-c3cccs3)n[nH]c2C1 | inconclusive: 44.2%
O=C(NC1CCCCC1)C1CCN(c2nnnn2-c2ccccc2)CC1 | inconclusive: 41.3%
CCOC(=O)C(C(=O)Nc1ccc(C)cc1)C1CCCCC1 (configuration not stated) | inconclusive: 44%
COc1ccc(-c2nn(-c3ccccc3)cc2/C=N/N2C(=O)CSC2=S)cc1 | inactive: 4.51%
CCN(CC)CP(=O)(c1ccccc1)c1ccccc1 | inconclusive: 42.6%
CCC(C)(C)NC(=O)C(c1ccc(OC)cc1)N(Cc1cccs1)C(=O)CCC(=O)Nc1cc(C)on1 (configuration not stated) | inconclusive: 58.5%
CC12CC(NC(=O)N1CCc1ccccc1)c1ccccc1O2 (configuration not stated) | inconclusive: 44.5%
CC#CCN(CC#CC)S(=O)(=O)c1ccc(S(=O)(=O)N2CCOCC2)cc1 | inconclusive: 43.3%
CCc1nnc(NC(=O)CSc2ccc(-c3nc4ccccc4[nH]3)cn2)s1 | inconclusive: 50.7%
O=C(CN(Cc1ccco1)C(=O)CNS(=O)(=O)c1ccccc1)NCc1ccc(F)cc1 | inconclusive: 44%

Compound | activation
CCCCn1nc(C(=O)NC2=NCCS2)c2ccccc2c1=O | inconclusive: 71.1%
CCOC(=O)c1cnc(Nc2nc3ccccc3o2)nc1CN1CCN(C)CC1 | inactive: -10.2%
Cc1cc(C)nc(Sc2nc(Cl)nc(N(c3ccccc3)c3ccccc3)n2)n1 | inconclusive: 44.5%
CC(NC(=O)c1ccccc1Cl)C(=O)O (configuration not stated) | active: 66.6%
Cc1ccc(C)c(/C(O)=C2\C(=O)C(=O)N(Cc3cccnc3)C2c2cccnc2)c1 (configuration not stated) | inconclusive: 86.8%
O=C(NCCc1ccccc1)c1noc2c1CCc1ccccc1-2 | inconclusive: 45.5%
CCCCCC1CCC(c2ccc(C(N)=O)cc2)CC1 (configuration not stated) | inconclusive: 64%
CCOC(=O)C(=O)c1csc(NC(=O)COc2ccc(N(C)S(=O)(=O)c3ccc(F)cc3)cc2)n1 | inconclusive: 44.4%
COc1ccc(CN(C(=O)CSc2nnc(-c3ccccc3F)o2)c2ccc(F)cc2)cc1 | inconclusive: 46.4%
C/C(=N\NC(=O)CSCc1cccc(Br)c1)c1ccc([N+](=O)[O-])cc1 | inactive: -7.51%
C=CCSC1=C(C#N)C(c2ccc(C(C)C)cc2)CC(=O)N1 (configuration not stated) | inactive: -4.75%
O=C(Cn1nc(Cc2ccncc2)c2ccccc2c1=O)N1CCc2ccccc2C1 | active: 72.1%
CCn1c(SCC(=O)N2CCCC2)nc2ccccc2c1=O | inconclusive: 46.2%
Clc1ccc(-n2nnnc2CN2CCOCC2)cc1 | inactive: 0.6%
O=S(=O)(N/N=C1\CC(c2ccccc2)Oc2ccccc21)c1ccccc1 (configuration not stated) | inactive: 4.03%
Cc1cc(C)nc(N2CCC(C(=O)Nc3nnc(C)s3)CC2)n1 | inactive: -25.9%
Cc1ccc(OCCNC(=O)c2cc(-n3cnnc3)ccc2Cl)cc1C | inconclusive: 58.3%
Fc1ccc(-c2nnc(NC3=NCCCCC3)o2)cc1 | inconclusive: 43.8%
CC1=C(C(=O)Nc2ccc(C)cc2C)C(c2ccc(C)o2)NC(=O)N1 (configuration not stated) | inactive: 6.89%
Cc1cc(NC(=O)Nc2cccs2)no1 | inconclusive: 48%
COc1ccc(S(=O)(=O)N(Cc2ccc(OC)c(OC)c2)Cc2ccco2)cc1 | inconclusive: 54.6%
CCc1ccc(-c2nc(CN3CCC(C(=O)NCc4ccc(F)cc4)CC3)c(C)o2)cc1 | inactive: -2.88%
CCN1CCN(Cc2c(O)ccc3c(=O)c(-c4ccc(OC)c(OC)c4)c(C(F)(F)F)oc23)CC1 | active: 65.5%
